# PubChem BioAssay (NCATS)
# By UniProt entry, the sequences of proteins in these tests, tags left out. Where a name states a change or a piece, a line headed by the entry shows the natural chain unless it says otherwise.
# UniProt P10828: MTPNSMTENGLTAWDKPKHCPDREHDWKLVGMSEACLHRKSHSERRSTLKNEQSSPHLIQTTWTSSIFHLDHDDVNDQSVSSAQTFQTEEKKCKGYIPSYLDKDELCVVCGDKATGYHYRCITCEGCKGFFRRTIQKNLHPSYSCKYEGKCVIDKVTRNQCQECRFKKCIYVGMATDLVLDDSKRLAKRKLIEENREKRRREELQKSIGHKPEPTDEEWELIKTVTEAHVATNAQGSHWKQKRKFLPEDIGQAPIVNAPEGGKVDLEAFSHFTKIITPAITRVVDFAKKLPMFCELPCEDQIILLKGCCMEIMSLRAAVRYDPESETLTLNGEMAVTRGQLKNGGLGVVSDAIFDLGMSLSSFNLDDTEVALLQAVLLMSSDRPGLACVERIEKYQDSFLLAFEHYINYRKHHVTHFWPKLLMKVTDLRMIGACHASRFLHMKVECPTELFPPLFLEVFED
# UniProt Q12809: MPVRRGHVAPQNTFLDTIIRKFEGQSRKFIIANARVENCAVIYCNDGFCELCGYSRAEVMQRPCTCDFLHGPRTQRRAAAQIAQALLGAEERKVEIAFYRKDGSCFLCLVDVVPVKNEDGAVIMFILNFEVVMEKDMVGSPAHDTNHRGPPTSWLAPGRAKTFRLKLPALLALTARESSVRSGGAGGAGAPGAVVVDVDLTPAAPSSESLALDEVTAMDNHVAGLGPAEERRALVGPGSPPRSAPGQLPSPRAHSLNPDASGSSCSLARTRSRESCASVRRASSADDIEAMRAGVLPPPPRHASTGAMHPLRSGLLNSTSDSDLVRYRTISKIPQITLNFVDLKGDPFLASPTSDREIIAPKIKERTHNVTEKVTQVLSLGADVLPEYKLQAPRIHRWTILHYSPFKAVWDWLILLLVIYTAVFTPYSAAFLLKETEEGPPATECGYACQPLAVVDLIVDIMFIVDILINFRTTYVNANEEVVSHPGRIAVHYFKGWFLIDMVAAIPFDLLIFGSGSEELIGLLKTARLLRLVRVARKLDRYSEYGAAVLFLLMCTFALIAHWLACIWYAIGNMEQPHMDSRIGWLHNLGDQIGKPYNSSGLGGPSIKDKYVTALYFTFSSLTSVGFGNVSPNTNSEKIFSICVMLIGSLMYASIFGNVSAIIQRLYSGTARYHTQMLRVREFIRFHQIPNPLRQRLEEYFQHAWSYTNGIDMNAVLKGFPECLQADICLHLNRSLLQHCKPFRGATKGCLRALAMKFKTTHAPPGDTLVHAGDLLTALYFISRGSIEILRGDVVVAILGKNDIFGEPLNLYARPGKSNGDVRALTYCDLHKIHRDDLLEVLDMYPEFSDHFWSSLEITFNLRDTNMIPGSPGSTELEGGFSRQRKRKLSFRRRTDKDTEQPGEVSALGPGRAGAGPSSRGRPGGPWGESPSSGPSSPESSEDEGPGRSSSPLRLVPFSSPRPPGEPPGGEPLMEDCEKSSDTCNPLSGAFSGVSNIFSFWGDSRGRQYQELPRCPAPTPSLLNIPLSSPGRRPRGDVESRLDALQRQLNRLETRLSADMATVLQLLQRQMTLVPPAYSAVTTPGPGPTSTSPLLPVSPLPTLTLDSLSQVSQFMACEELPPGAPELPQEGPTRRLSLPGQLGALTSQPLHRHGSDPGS
# The inconclusive results got no clear call from the source; some entries with a clear call stand among them for comparison. For some assays here: Potencies beside an inconclusive call are fits to weak or partial responses and may not hold up. Activity calls are given as the source filed them. Unless noted, the call rests on the fitted dose curve; in most records, active means well fitted curve in the direction sought with a large enough effect; inconclusive means small, poorly fitted or top-dose-only effect, or another doubt; inactive means no such curve, though single readings can be large; an effect the other way counts as inactive or inconclusive.
# Columns and labels:
# [1] = target: Thyroid hormone receptor beta (Homo sapiens) (UniProt P10828); assay: qHTS assay for small molecule agonists of thyroid hormone receptor beta signaling (AID 588545; calls by dose curve); settings: TR-UAS-bla GripTite HEK 293, beta-lactamase ratio, agonist mode, 18 h; activation: at 76.7 µM, percent of T3 response, DMSO as zero
# In short: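 In this cell-based screen, titrated compounds act on HEK 293 cells held in medium with 2% charcoal/dextran FBS, NEAA and pyruvate for 18 hrs at 37 C. Responses are expressed relative to T3 (10 nM) as 100% and basal DMSO as 0%.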
# [2] = S16 Schwann cell viability assay (CellTiter-Glo assay) (AID 624031); further: nearly all actives have a fitted effect of over 70% in size; further: potency means the concentration at half of the fitted maximal effect
# In short: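 Native S16 Schwann cells (rat), serum-containing medium, overnight attachment then 24 h drug exposure at 37 °C/5% CO2. CellTiter-Glo ATP signal; normalized to cell-free and vehicle wells.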
# [3] = target: Voltage-gated inwardly rectifying potassium channel KCNH2 (Homo sapiens) (UniProt Q12809); assay: qHTS Assay for Small Molecule Inhibitors of the Human hERG Channel Activity (AID 588834); settings: U2OS BacMam hERG, FluxOR thallium flux fluorescence; activity change, negative = inhibition: at 46.1 µM (top of the series);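 further: potency means the concentration at half of the fitted maximal effect; lower thallium flux fluorescence means stronger hERG block; nearly all actives have a fitted effect of over 50% in size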
# In short: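 U2OS cells transduced with hERG via BacMam (MOI ~100), plated 2000/well, loaded with FluxOR thallium dye, compound ~10 min, then stimulation buffer; fluorescence decrease read kinetically; AC50 from Hill fits.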
# [4] = S16 Schwann cell PMP22 intronic element firefly luciferase assay (AID 624032); further: nearly all actives have a fitted effect of over 30% in size; further: potency means the concentration at half of the fitted maximal effect;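 on activity change, negative = inhibition: plate controls were DMSO for no effect and PTC124 positive control mean for full effect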
# In short: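 Luciferase reporter of PMP22 intronic-element expression in stably transfected S16 rat Schwann cells, read by ONE-Glo luminescence after 24 h compound exposure at 37 C. Activity scaled between DMSO (0%) and positive-control PTC124; concentration-effect curves quality-classified.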
# [5] = S16 Schwann cell PMP22 intronic element beta-lactamase assay (AID 624044; calls by dose curve; further: potency means the concentration at half of the fitted maximal effect; nearly all actives have a fitted effect of over 15% in size); settings: S16 rat Schwann cells, PMP22 element beta-lactamase FRET, 24 h; ratio activity, negative = inhibition: at 38.3 µM (top of the series) unless noted
# In short: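 Rat S16 Schwann cells with beta-Lac driven by a PMP22 intronic element, compound-treated 24 h at 37 °C. LiveBLAzer FRET B/G read: 460 nm normalized to potassium clavulanate vs DMSO; 535 nm FRET as viability; concentration-effect curves classified.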
structure (smiles),measurement,setting,value
Oc1ccc(Cl)cc1Sc1cc(Cl)ccc1O,activation,[1],inconclusive: 53.5%
C[C@]12O[C@H](C[C@]1(O)CO)n1c3ccccc3c3c4c(c5c6ccccc6n2c5c31)CNC4=O,Potency,[2],active: 10.2 µM
CC1(C)O[C@@H]2C[C@@H]3[C@H]4C[C@@H](F)C5=CC(=O)C=C[C@]5(C)[C@@]4(F)[C@@H](O)C[C@]3(C)[C@]2(C(=O)CO)O1,Potency,[3],"inconclusive: 14.1 µM [inhibitor, single point]"
O=C(O)c1cc(=O)c2c3nc4ccccc4oc-3cc(=O)c2[nH]1,Potency,[2],active: 36.1 µM
COCC(=O)O[C@]1(CCN(C)CCCc2nc3ccccc3[nH]2)CCc2cc(F)ccc2[C@@H]1C(C)C,Potency,[2],active: 10.2 µM
same,Potency,[4],active: 10.2 µM
same,Potency,[5],active: 25.1 µM
CN1CCN(C(c2ccccc2)c2ccccc2)CC1,Potency,[2],inactive
CN(C)c1ccc(C(=C2C=CC(=[N+](C)C)C=C2)c2c(O)c(S(=O)(=O)[O-])cc3cc(S(=O)(=O)O)ccc23)cc1,Potency,[2],"inconclusive: 10.2 µM [cytotoxic, partial curve, poor fit]"
same,Potency,[4],active: 36.1 µM
C[n+]1cc2c3c(ccc2c2ccc4cc5c(cc4c21)OCO5)OCO3,Potency,[2],active: 3.22 µM
same,Potency,[5],active: 15.8 µM
Cc1cccc(C)c1NC(=O)CN1CCN(CCCC(c2ccc(F)cc2)c2ccc(F)cc2)CC1,Potency,[2],"inconclusive: 13.8 µM [cytotoxic, single point]"
CCCCCCCCNC(C)C(O)c1ccc(SC(C)C)cc1 (configuration not stated),Potency,[2],active: 14.4 µM
same,Potency,[4],active: 22.8 µM
NC(=O)C(=O)N/N=C/c1ccc([N+](=O)[O-])o1,Potency,[2],"inconclusive: 40.5 µM [cytotoxic, single point]"
CNCCCC1c2ccccc2C=Cc2ccccc21,Potency,[2],"inconclusive: 4.36 µM [cytotoxic, partial curve]"
same,Potency,[4],active: 12.3 µM
CN=C1C=CC(=C(c2ccc(N(C)C)cc2)c2ccc(N(C)C)cc2)C=C1,Potency,[2],active: 10.2 µM
same,Potency,[4],active: 14.4 µM
same,Potency,[5],"inconclusive: 22.4 µM [falling, partial curve]"
CN1CCN(CCC=C2c3ccccc3Sc3ccc(S(=O)(=O)N(C)C)cc32)CC1,Potency,[2],"inconclusive: 36.1 µM [cytotoxic, single point]"
same,Potency,[4],"inconclusive: 40.5 µM [inhibitor, single point]"
COc1c(C)c2c(c(O)c1C/C=C(\C)CCC(=O)O)C(=O)OC2,Potency,[2],"inconclusive: 12.3 µM [cytotoxic, partial curve, poor fit]"
same,Potency,[4],active: 0.976 µM
same,Potency,[5],inconclusive: 6 µM
Nc1ccc2cc3ccc(N)cc3nc2c1,Potency,[2],inactive
same,Potency,[4],inactive
same,Potency,[5],"inconclusive: 11.2 µM [falling, full curve]"
CCC(=O)c1ccc2c(c1)N(CCCN(C)C)c1ccccc1S2,Potency,[2],"inconclusive: 3.61 µM [cytotoxic, partial curve, poor fit]"
O=C1[C@H]2CCCC[C@H]2C(=O)N1CCCCN1CCN(c2nsc3ccccc23)CC1,Potency,[2],active: 32.2 µM
same,Potency,[4],"inconclusive: 6.42 µM [inhibitor, partial curve, poor fit]"

# A section taken from the entries so far, for reference:
structure (smiles),measurement,setting,value
Nc1ccc2cc3ccc(N)cc3nc2c1,Potency,[2],inactive
same,Potency,[4],inactive
same,Potency,[5],"inconclusive: 11.2 µM [falling, full curve]"
CCC(=O)c1ccc2c(c1)N(CCCN(C)C)c1ccccc1S2,Potency,[2],"inconclusive: 3.61 µM [cytotoxic, partial curve, poor fit]"
O=C1[C@H]2CCCC[C@H]2C(=O)N1CCCCN1CCN(c2nsc3ccccc23)CC1,Potency,[2],active: 32.2 µM
